Values of other authors as cited in US10898451B2, “Methods of treating anti-NMDA receptor encephalitis with tramadol” (Board of Regents of the University of Texas System, priority 2018, dated 2021).

System: NMDARs
Details: cited from earlier work

Which results are given for `COc1cccc(C2(O)CCCCC2CN(C)C)c1` (centres unmarked) [tramadol, 2-(dimethylaminomethyl)-1-(3-methoxyphenyl)cyclohexanol]?
inhibition of NMDARs (K. Hara et al., Anesth. Analg. 100 (2005)): inhibit NMDARs at clinically relevant levels; mode of NMDAR inhibition (Seifi and Kitchen 2016, Hara et al. 2005): non-competitively inhibits NMDARs in a concentration dependent manner
